# Reference: PubChem BioAssay AID1347131 (National Center for Advancing Translational Sciences (NCATS), 2019)
# Out of some 410,000 compounds screened, about 2,000 (0.49%) were called active. This list was built around the results that the source calls inconclusive (neither active nor inactive); the mix of calls is not that of the screen. The call rests on the fitted dose curve; tested in HEK293 reporter line. A potency beside an inconclusive call is a rough fit, not a confirmed value.
# Assay: qHTS Assay for Foot and Mouth Disease Virus Antivirals: Primary Screen against the MLPCN compound library; further: nearly all actives have a fitted effect of over 55% in size
# Conditions: FMDV antiviral cell-based qHTS; activity, negative = inhibition: at 57.9 µM (top of the series)
# Potency means the concentration at half of the fitted maximal effect.
SMILES,Potency,"activity, negative = inhibition"
CN1CCN(c2ncnc3c2cnn3-c2ccc(Cl)cc2)CC1,"inconclusive: 17.8 µM [inhibitor, single point]",
CCC(NC(=O)c1ccc2nc(Cc3ccc(OC)cc3)oc2c1)c1ccncc1 (stereo not given),"inconclusive: 20 µM [inhibitor, partial curve, poor fit]",
OC[C@@H]1CN(Cc2ccc(-c3ccccc3)cc2)C[C@H](n2cnc3c(NCc4ccco4)ncnc32)O1,"inconclusive: 31.6 µM [inhibitor, single point]",
O=C(Nc1ccc(Cc2ccncc2)cc1)c1ccc(N2CCOCC2)c([N+](=O)[O-])c1,"inconclusive: 6.31 µM [inhibitor, partial curve, poor fit]",
COc1cccc(NC(=O)CSc2nc3ccc(NC(=O)c4ccco4)cc3s2)c1,"inconclusive: 39.8 µM [inhibitor, partial curve, poor fit]",
CCc1ccc2oc(-c3ccc(OC)cc3)cc(=Nc3c(C)n(C)n(-c4ccccc4)c3=O)c2c1,"inconclusive: 39.8 µM [inhibitor, single point]",
O=C1CSC2(C(=O)N3CCCc4cccc2c43)N1c1cccc(C(F)(F)F)c1 (stereo not given),"inconclusive: 22.4 µM [inhibitor, partial curve, poor fit]",
Cc1ccc(C2=Nc3ccccc3NC(c3ccncc3)=N2)cc1,,inactive: -31%
COCCN1CCN(C(=O)c2ccc3c(c2)S(=O)(=O)c2ccccc2C3=O)CC1,"inconclusive: 7.08 µM [inhibitor, partial curve]",
Cc1cccc(Nc2nc(N)c([N+](=O)[O-])c(N3CC(C)CC(C)C3)n2)c1 (stereo not given),"inconclusive: 22.4 µM [inhibitor, partial curve, poor fit]",
COc1ccc(CCNC(=O)CC(c2ccccc2)c2cc(C)ccc2O)cc1OC (stereo not given),"inconclusive: 17.8 µM [inhibitor, partial curve, poor fit]",
COc1ccc(C2C(C#N)=C(N)Oc3c2sc2nc(C)cc(C)c32)cc1 (stereo not given),"inconclusive: 39.8 µM [inhibitor, partial curve, poor fit]",
CC(C)CN1C(=O)c2ccc(C(=O)Nc3ccncc3)cc2C1=O,"inconclusive: 12.6 µM [inhibitor, partial curve, poor fit]",
Cc1ccc(-n2ncc3c(NC4CCCCC4)ncnc32)cc1,active: 20 µM,
CN(CC(=O)Nc1ccccc1Cl)S(=O)(=O)c1ccc(C(=O)N2CCOCC2)s1,,inconclusive: -31% [inhibitor]
COC(=O)Cc1[nH]n(-c2nc3ccccc3s2)c(=O)c1C(C)=Nc1ccc(Cl)cc1,"inconclusive: 1 µM [inhibitor, full curve, poor fit]",
CC1=C/C(=C(/c2cc(C)c(O)c(Br)c2)c2ccccc2S(=O)(=O)O)C=C(Br)C1=O,active: 17.8 µM,
CC(C)OP(=O)(OC(C)C)C(Nc1ccccc1)c1cccc([N+](=O)[O-])c1 (stereo not given),"inconclusive: 2 µM [inhibitor, full curve]",
COc1ccc(C=C2CCc3ccccc3C2=O)cc1,"inconclusive: 17.8 µM [inhibitor, single point]",
C=CCn1c(SCC(=O)Nc2sccc2C(N)=O)nc2sc(CC)cc2c1=O,"inconclusive: 25.1 µM [inhibitor, partial curve, poor fit]",

SMILES,Potency,"activity, negative = inhibition"
Cc1ccc(/C=C/c2nc3ccccc3n2S(=O)(=O)c2cccc(Cl)c2)cc1,active: 8.91 µM,
Cc1cnc(NC(=O)c2ccc3c(c2)OCCO3)s1,"inconclusive: 10 µM [inhibitor, partial curve, poor fit]",
Cc1sc2ncnc(N3CCC(C(=O)NNC(=O)COc4ccccc4F)CC3)c2c1C,"inconclusive: 25.1 µM [inhibitor, partial curve, poor fit]",
COc1ccc(-n2nnnc2S(=O)(=O)Cc2ccc(C(=O)O)cc2)cc1,"inconclusive: 28.2 µM [inhibitor, partial curve, poor fit]",
COc1ccc(NS(=O)(=O)c2ccc(NC(=O)c3ccc(CN4CCOCC4)cc3)cc2)cc1,"inconclusive: 7.94 µM [inhibitor, partial curve, poor fit]",
O=C(COc1ccc(S(=O)(=O)N2CCOCC2)cc1)Nc1cccc([N+](=O)[O-])c1,"inconclusive: 3.55 µM [inhibitor, partial curve, poor fit]",
Clc1cc(Br)ccc1OCCCNCc1ccccc1,,inactive: -31.7%
Nc1c(C(=O)NCc2ccco2)c2nc3ccccc3nc2n1CCN1CCOCC1,"inconclusive: 15.8 µM [inhibitor, partial curve]",
Cc1nc(C)c(C(=O)Nc2ncc([N+](=O)[O-])s2)o1,"inconclusive: 7.08 µM [inhibitor, full curve, poor fit]",
CCS(=O)(=O)c1ncc(Cl)c(C(=O)Nc2ccccc2OC)n1,"inconclusive: 3.55 µM [inhibitor, full curve, poor fit]",
COc1ccccc1C(=O)Nc1onc2c1CCCC2,"inconclusive: 39.8 µM [inhibitor, single point]",
CC(C)(C)c1cc(-c2csc(Nc3ccccc3)[n+]2Cc2ccc(C(=O)O)cc2)cc(C(C)(C)C)c1O,"inconclusive: 31.6 µM [inhibitor, partial curve, poor fit]",
COc1ccc(NC(=O)C2(C)CCN2C(=O)c2ccc(C(C)(C)C)cc2)cc1OC (stereo not given),"inconclusive: 20 µM [inhibitor, single point]",
COc1ccc(CN2CCN(C(=O)C3CCN(C(=O)Nc4ccccc4)CC3)CC2)cc1OC,"inconclusive: 1.78 µM [inhibitor, full curve]",
Oc1cccc(/C=C/c2ccc3cccc(O)c3n2)c1,"inconclusive: 39.8 µM [inhibitor, single point]",
O=C(CSc1nc2ccccc2[nH]1)c1ccc(Cl)s1,,inactive: 38.3%
CCN(CC)CCN(C(=O)c1ccc2c(c1)CCCC2)c1nc2ccc(C)cc2s1,,inactive: -7.69%
CNC(=O)c1cc(Oc2ccc(NC(=O)Nc3ccc(Cl)c(C(F)(F)F)c3)cc2)ccn1,"inconclusive: 20 µM [inhibitor, partial curve, poor fit]",
O=C(CSc1ncnc2c1nnn2Cc1ccc(F)cc1)NCC1CCCO1 (stereo not given),"inconclusive: 35.5 µM [inhibitor, partial curve, poor fit]",
CC(C)Oc1ccc(C(=O)Nc2nc3ccccc3[nH]2)cc1,"inconclusive: 7.94 µM [inhibitor, partial curve, poor fit]",

SMILES,Potency,"activity, negative = inhibition"
COc1ccc(CNc2nc(S(=O)(=O)c3ccccc3)c(Cl)s2)cc1OC,"inconclusive: 14.1 µM [inhibitor, partial curve, poor fit]",
O=C(/C=C/c1cccs1)c1cc(Cl)ccc1OC(=O)N1CCOCC1,active: 17.8 µM,
CCC(Sc1nc(C)cc(C)n1)C(=O)O (stereo not given),,inactive: -22.8%
CCOc1ccccc1NC(=O)c1c(NC(=O)CCC(=O)O)sc2c1CCCCC2,"inconclusive: 25.1 µM [inhibitor, partial curve, poor fit]",
CCc1ccc(CNC(=O)C(=O)NCC2CCCO2)cc1 (stereo not given),"inconclusive: 7.94 µM [inhibitor, partial curve, poor fit]",
Cc1cccc(C(=O)N2CCc3cc(CNC(=O)c4ccnn4C)ccc32)c1,"inconclusive: 20 µM [inhibitor, partial curve, poor fit]",
Cc1cccc(N2CCN(C(=O)c3cc4c(=O)n(C)c5ccccc5c4n3C)CC2C)c1 (stereo not given),"inconclusive: 15.8 µM [inhibitor, partial curve, poor fit]",
Cc1c(C(=O)OCC(=O)NCCc2ccc(S(N)(=O)=O)cc2)oc2ccccc12,"inconclusive: 12.6 µM [inhibitor, partial curve]",
O=C(C1CCCN(S(=O)(=O)c2cccc3nsnc23)C1)N1CC=C(c2ccccc2)CC1 (stereo not given),"inconclusive: 20 µM [inhibitor, partial curve, poor fit]",
C=CCNc1nc(-c2cccc(OC)c2O)nc2ccccc12,"inconclusive: 14.1 µM [inhibitor, partial curve]",
Cc1ccc(NC(=O)CCCc2nnc3n(C)c(=O)c4sccc4n23)cc1F,"inconclusive: 1.26 µM [inhibitor, full curve, poor fit]",
COc1ccc(-n2c(C)cc(C(=O)COC(=O)Cn3cnc4ccccc43)c2C)cc1,"inconclusive: 8.91 µM [inhibitor, partial curve, poor fit]",
Cc1nc(CSc2ccc(Cl)cc2)cc(N2CC(C)OC(C)C2)n1 (stereo not given),"inconclusive: 25.1 µM [inhibitor, partial curve, poor fit]",
CN(CCOc1ccccc1)CC(=O)Nc1ccc(S(=O)(=O)N2CCCC2)cc1,"inconclusive: 2.82 µM [inhibitor, full curve]",
COc1ccc(C(=O)Nc2nc3c(s2)CCCC3)cc1Cl,"inconclusive: 17.8 µM [inhibitor, partial curve]",
O=C(NC1CCCCC1)Oc1cc2oc(=O)sc2cc1Cl,"inconclusive: 25.1 µM [inhibitor, partial curve, poor fit]",
CCCCOc1ccc(Br)cc1CSC(=N)N,"inconclusive: 12.6 µM [inhibitor, partial curve, poor fit]",
COc1ccc(CCNc2nc(-c3ccc(OC)c(OC)c3)cc(C(F)(F)F)n2)cc1OC,,inactive: -30.5%
CCN(C(=O)CSc1ncccc1C(=O)Oc1cccc([N+](=O)[O-])c1)c1cccc(C)c1,"inconclusive: 25.1 µM [inhibitor, partial curve, poor fit]",
CN(C)Cc1n[nH]c(=O)c2ccccc12,,inactive: 0.231%

# One compound at a time, from the list above:
# CCOc1ccccc1NC(=O)c1c(NC(=O)CCC(=O)O)sc2c1CCCCC2 in the list: Potency: inconclusive: 25.1 µM [inhibitor, partial curve, poor fit]
# O=C(NC1CCCCC1)Oc1cc2oc(=O)sc2cc1Cl in the list: Potency: inconclusive: 25.1 µM [inhibitor, partial curve, poor fit]

# In another format: results already given
SMILES | Potency | activity, negative = inhibition
O=C(/C=C/c1cccs1)c1cc(Cl)ccc1OC(=O)N1CCOCC1 | active: 17.8 µM | 
C=CCNc1nc(-c2cccc(OC)c2O)nc2ccccc12 | inconclusive: 14.1 µM [inhibitor, partial curve] | 
